Results are given in words; binding and its absence hold for the method and conditions named. In cells and extracts the contact can be indirect. A result given as binding can be weak or reduced; the word gives no strength.
Molecular target: 3xHA-Runx2 (UniProt Q08775)
Experiment: co-IP; 293T cells co-transfected with 3xHA-Runx2 with or without Flag-PADI2, cultured 3 days; lysate immunoprecipitated with anti-HA antibody and protein G-conjugated magnetic beads; immunoblot

The chains behind the UniProt entries cited, without tags or fusion partners. Where a name states a change or a piece, a line headed by the entry shows the natural chain unless it says otherwise.
UniProt Q08775: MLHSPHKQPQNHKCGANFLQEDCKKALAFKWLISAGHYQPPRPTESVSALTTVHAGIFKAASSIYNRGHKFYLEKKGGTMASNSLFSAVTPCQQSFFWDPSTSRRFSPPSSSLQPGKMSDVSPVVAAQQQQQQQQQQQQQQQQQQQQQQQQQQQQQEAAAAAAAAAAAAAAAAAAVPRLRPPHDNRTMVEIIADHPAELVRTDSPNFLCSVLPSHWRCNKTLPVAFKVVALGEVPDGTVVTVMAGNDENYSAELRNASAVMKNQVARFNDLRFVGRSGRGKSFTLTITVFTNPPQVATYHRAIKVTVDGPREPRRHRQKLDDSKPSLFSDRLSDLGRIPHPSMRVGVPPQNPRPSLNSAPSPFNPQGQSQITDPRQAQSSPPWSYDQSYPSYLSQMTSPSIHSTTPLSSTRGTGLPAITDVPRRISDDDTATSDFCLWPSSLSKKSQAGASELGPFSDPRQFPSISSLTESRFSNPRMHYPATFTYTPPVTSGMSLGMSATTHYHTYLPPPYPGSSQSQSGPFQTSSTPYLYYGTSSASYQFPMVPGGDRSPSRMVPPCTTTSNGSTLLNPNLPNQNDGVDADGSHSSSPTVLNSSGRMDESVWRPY
UniProt Q9Y2J8: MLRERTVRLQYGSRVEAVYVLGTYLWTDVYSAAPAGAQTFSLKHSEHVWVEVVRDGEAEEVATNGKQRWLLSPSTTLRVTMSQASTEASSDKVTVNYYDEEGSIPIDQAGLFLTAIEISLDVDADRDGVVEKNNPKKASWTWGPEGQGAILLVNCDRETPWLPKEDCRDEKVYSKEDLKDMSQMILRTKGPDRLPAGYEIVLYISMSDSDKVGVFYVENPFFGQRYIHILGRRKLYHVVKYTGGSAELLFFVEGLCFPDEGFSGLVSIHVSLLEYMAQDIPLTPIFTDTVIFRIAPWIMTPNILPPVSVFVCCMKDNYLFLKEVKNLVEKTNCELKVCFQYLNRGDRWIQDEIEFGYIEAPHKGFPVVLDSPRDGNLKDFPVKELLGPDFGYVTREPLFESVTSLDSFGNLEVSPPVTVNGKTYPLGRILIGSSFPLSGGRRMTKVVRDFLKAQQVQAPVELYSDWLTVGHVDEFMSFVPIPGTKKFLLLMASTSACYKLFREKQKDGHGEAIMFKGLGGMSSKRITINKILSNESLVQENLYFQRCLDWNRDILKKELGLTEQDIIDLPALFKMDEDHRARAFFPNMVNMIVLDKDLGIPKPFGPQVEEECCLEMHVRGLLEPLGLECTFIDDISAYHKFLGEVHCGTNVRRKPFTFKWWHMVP

binding: binds
Substance: Flag-PADI2 (from UniProt Q9Y2J8 1-665) (enzyme)

— publication PMC10468518
